Results: PubChem BioAssay (Tox21)
The shares of active, inactive and inconclusive entries below differ from those in the screen. Where the call is inconclusive, the potency comes from a doubtful curve fit. The source made the active and inactive calls. Unless noted, calls come from the whole dose curve.

By UniProt entry, the sequences of proteins in these tests, tags left out.
UniProt P14416, whole entry, looked up: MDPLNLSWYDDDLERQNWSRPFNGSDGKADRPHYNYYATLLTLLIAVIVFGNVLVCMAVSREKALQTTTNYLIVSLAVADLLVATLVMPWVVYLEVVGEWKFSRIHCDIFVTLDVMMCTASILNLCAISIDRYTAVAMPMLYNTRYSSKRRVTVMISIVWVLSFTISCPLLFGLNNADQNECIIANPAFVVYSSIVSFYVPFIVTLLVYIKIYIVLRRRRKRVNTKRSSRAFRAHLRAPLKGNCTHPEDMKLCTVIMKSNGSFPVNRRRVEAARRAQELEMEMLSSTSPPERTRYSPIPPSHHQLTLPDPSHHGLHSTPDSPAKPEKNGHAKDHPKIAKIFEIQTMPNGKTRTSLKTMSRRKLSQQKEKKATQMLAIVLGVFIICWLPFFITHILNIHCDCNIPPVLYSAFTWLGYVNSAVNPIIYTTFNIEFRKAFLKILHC

Molecular target: D(2) dopamine receptor (Homo sapiens) (UniProt P14416)
Assay: Dopamine D2 receptor (DRD2) small molecule agonists, cell-based qHTS assay (AID 1963594); note: nearly all actives have a fitted effect of over 35% in size
Conditions: HEK293-DRD2 cAMP HTRF, agonist mode, 30 min; activation: at 92.4 µM (top of the series) unless noted
Summary of the method: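 HEK293 cells stably expressing human DRD2, pre-treated with PDE inhibitor Ro20-1724 (0.1 mM final) and compound 10 min at room temperature, then stimulated with NKH477 (200nM […]) for 30 min. cAMP read by HTRF (665/620 nm).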
% is set by controls: 0 for no effect and ±100 for the full control effect; potency is the fitted concentration of half-maximal effect.

| Structure (SMILES) | Potency | activation |
| --- | --- | --- |
| CC(CO)CO | inconclusive: 2.42 µM [falling, full curve, poor fit] | – |
| O=C1OCCN1/N=C/c1ccc([N+](=O)[O-])o1 | – | inconclusive: 11.6% [at 42.5 µM] |
| Cc1cccc(C)c1NC(=O)c1ccccc1C(=O)O | – | inconclusive: -19.5% [at 42.5 µM] |
| CC(C)=CCC/C(C)=C\CO | inconclusive: 0.0172 µM [rising, full curve] | – |
| COCCc1ccc(OCC(O)CNC(C)C)cc1 (configuration not stated) | inconclusive: 1.68 µM | inconclusive: 20.4% |
| CC(C(=O)O)c1cccc(Oc2ccccc2)c1 (configuration not stated) | – | inactive: 17.3% [at 42.5 µM] |
| C=CC(=O)CC | – | inactive: -0.331% |
| OCC(O)CN1CCN(c2ccccc2)CC1 (configuration not stated) | inconclusive: 13.3 µM [rising, partial curve] | – |
| CCCC(=O)Nc1ccc(OCC(O)CNC(C)C)c(C(C)=O)c1 (configuration not stated) | active: 18.8 µM | – |
| Nc1nc2c(ncn2COC(CO)CO)c(=O)[nH]1 | active: 1.14 µM | – |
| CC(C)Cn1cnc2c1c(=O)n(C)c(=O)n2C | inconclusive: 8.1 µM | – |
| O=C(O)c1ccccc1-n1cc(C(=O)O)c(=O)c2cc(Nc3c(F)cc(F)cc3Cl)c(Cl)cc21 | inconclusive: 35.7 µM | – |
| NC(=O)C(=O)N/N=C/c1ccc([N+](=O)[O-])o1 | – | inconclusive: 2.91% [at 42.5 µM] |
| CC(C)(C)NCC(O)COc1cccc2c1C[C@H](O)[C@H](O)C2 (some centres not stated) | inconclusive: 0.006 µM [rising, full curve, poor fit] | – |
| NCC1CCCC(CN)C1 (configuration not stated) | – | inconclusive: 0.443% |
| Cc1occc(=O)c1O | inconclusive: 2.86 µM [falling, single point] | – |
| Cc1ccccn1 | – | inactive: -1.21% |
| CCOC(=O)c1cccc(N)c1 | – | inconclusive: -8.81% [at 42.5 µM] |
| OC1(c2ccc(Cl)cc2)CCNCC1 | – | inconclusive: -4.02% [at 42.5 µM] |
| CC(C)NCC(O)COc1ccc(COCCOC(C)C)cc1 (configuration not stated) | inconclusive: 0.668 µM [rising, full curve, poor fit] | – |
| CC[N+](CC)(CC)CCOc1cccc(OCC[N+](CC)(CC)CC)c1OCC[N+](CC)(CC)CC | – | inactive: -2.95% [at 42.5 µM] |

Molecular target: D(2) dopamine receptor (Homo sapiens) (UniProt P14416)
Assay: Dopamine D2 receptor (DRD2) small molecule antagonists, cell-based qHTS assay (AID 1963595; active = well fitted inhibition curve with a large enough effect in the signal ratio in the repeat runs, with a control signal flat; inconclusive = weak or mixed curves, or effect the other way; the % refers to the signal ratio)
Conditions: HEK293-DRD2 cAMP HTRF antagonist mode; activity change, negative = inhibition: at 92.4 µM (top of the series) unless noted
Summary of the method: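 HEK293 cells stably expressing DRD2 were preincubated with 0.1 mM Ro20-1724, then with compound for 10 min at room temperature. Cells were stimulated with 200 nM NKH477 plus 12 nM quinpirole for 30 min, and cAMP was read by HTRF.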

| Structure (SMILES) | activity change, negative = inhibition | Potency |
| --- | --- | --- |
| C=CCOC(=O)C(=C)C | inconclusive: -1.15% | – |
| OC[C@@H](O)[C@@H](O)[C@H](O)[C@@H](O)CO | inconclusive: 2.33% | – |
| CCCCCCCCCCCCCCCCCCOCC(O)CO (configuration not stated) | inconclusive: -101% [at 42.5 µM] | – |
| CCCc1cc(C(N)=S)ccn1 | inconclusive: -2.21% [at 42.5 µM] | – |
| C1CCCNCC1 | inconclusive: 11.8% | – |
| Cc1ccc(-c2ccccc2)cc1 | inactive: 8.69% | – |
| CCc1c(C(=O)O)c(=O)cnn1-c1ccc(Cl)cc1 | – | inconclusive: 77 µM [cytotoxic, single point] |
| CCOc1nc2cccc(C(=O)O)c2n1Cc1ccc(-c2ccccc2-c2nn[nH]n2)cc1 | inactive: -2.14% [at 42.5 µM] | – |
| C[Si](C)=O | inactive: 6.58% [at 8.38 µM] | – |
| COc1ccnc(CS(=O)c2nc3ccc(OC(F)F)cc3[nH]2)c1OC (configuration not stated) | inconclusive: 9.84% [at 42.5 µM] | – |
| O=C(O)c1ccccc1-n1cc(C(=O)O)c(=O)c2cc(Nc3c(F)cc(F)cc3Cl)c(Cl)cc21 | – | inconclusive: 54.5 µM [partial curve] |
| C[Si](C)(C)Cl | inconclusive: -5.4% | – |
| CC1=CC[C@H](CC=O)C1(C)C | inconclusive: -7.55% | – |
| CCCCC(C)C(=O)O (configuration not stated) | inactive: 7.25% | – |
| CCCCCCCCCCCCCCCC(=O)NCCO | inconclusive: -0.79% [at 42.5 µM] | – |
| OCCCCl | inconclusive: 4.53% | – |
| C[C@@H]1C[C@H]2[C@@H]3CCC4=CC(=O)C=C[C@]4(C)[C@@]3(F)[C@@H](O)C[C@]2(C)[C@H]1C(=O)CO | inactive: 3.79% [at 42.5 µM] | – |
| OC(CCCN1CCCCC1)(c1ccccc1)c1ccccc1 | – | active: 5.96 µM |
| Cc1cncc(C)c1 | inactive: 4.51% | – |
| Cc1ccc(N(CC2=NCCN2)c2cccc(O)c2)cc1 | inconclusive: -19.2% [at 42.5 µM] | – |

Ten neighbouring records out of the list so far, quoted:

| Structure (SMILES) | activity change, negative = inhibition | Potency |
| --- | --- | --- |
| CCCCCCCCCCCCCCCCCCOCC(O)CO (configuration not stated) | inconclusive: -101% [at 42.5 µM] | – |
| CCCc1cc(C(N)=S)ccn1 | inconclusive: -2.21% [at 42.5 µM] | – |
| C1CCCNCC1 | inconclusive: 11.8% | – |
| Cc1ccc(-c2ccccc2)cc1 | inactive: 8.69% | – |
| CCc1c(C(=O)O)c(=O)cnn1-c1ccc(Cl)cc1 | – | inconclusive: 77 µM [cytotoxic, single point] |
| CCOc1nc2cccc(C(=O)O)c2n1Cc1ccc(-c2ccccc2-c2nn[nH]n2)cc1 | inactive: -2.14% [at 42.5 µM] | – |
| C[Si](C)=O | inactive: 6.58% [at 8.38 µM] | – |
| COc1ccnc(CS(=O)c2nc3ccc(OC(F)F)cc3[nH]2)c1OC (configuration not stated) | inconclusive: 9.84% [at 42.5 µM] | – |
| O=C(O)c1ccccc1-n1cc(C(=O)O)c(=O)c2cc(Nc3c(F)cc(F)cc3Cl)c(Cl)cc21 | – | inconclusive: 54.5 µM [partial curve] |
| C[Si](C)(C)Cl | inconclusive: -5.4% | – |
